From PubChem BioAssay AID504444 (National Center for Advancing Translational Sciences (NCATS), 2011)
Hit rate of the full screen: of about 360,000 compounds, about 7,500 (2.1%) were called active. Inconclusive results, whose numbers are uncertain, are shown with a selection of clear calls. The call rests on the fitted dose curve; in most records, active means well fitted inhibition curve with a large enough effect; inconclusive means small, poorly fitted or top-dose-only effect, or effect the other way; inactive means flat fitted curve, though single readings scatter. Potencies beside an inconclusive call are fits to weak or partial responses and may not hold up.

Experiment: Nrf2 qHTS screen for inhibitors; further: nearly all actives have a fitted effect of over 60% in size
Conditions: A549 ARE-Fluc reporter, luciferase luminescence, 18-24 h; activity change, negative = inhibition: at 46 µM (top of the series)
Summary of the method: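 A549 ARE_Fluc cells (5000/well, 5% FBS OPTI-MEM) pre-incubated 2 h, then treated with compounds 18-24 h at 37C/5% CO2 in concentration-response. CellTiter-Fluor viability read first; BugLite luciferase luminescence after 15 min at room temperature gives Nrf2 activity.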
On the % scale 0 is the no-effect control and ±100 the full control effect; potency means the concentration at half of the fitted maximal effect.

Row | SMILES | Potency | activity change, negative = inhibition
1 | COc1ccc(C(=O)CCNc2ccc(F)cc2)cc1 | inconclusive: 25.9 µM [activator, single point] | 
2 | COc1ccc2c(c1)CCc1c(C(=O)Nc3c(C)nn(Cc4ccccc4C)c3C)noc1-2 | active: 18.4 µM | 
3 | CCOP(=O)(OCC)C(NC(=O)c1ccccc1)=C(Cl)Cl |  | inactive: 21.8%
4 | COc1ccc(Cl)cc1NC(=O)CN1C(=O)CN=C(c2ccccc2)c2cc(Cl)ccc21 | inconclusive: 16.4 µM [falling, partial curve, poor fit] | 
5 | CC[n+]1c(-c2ccccc2)c2cc(N)ccc2c2ccc(N)cc21 | active: 14.6 µM | 
6 | COC(=O)C1=C(c2ccc(-c3ccccc3)c(F)c2)C[C@@H]2CC[C@H]1N2C(=O)NCC1CC1 | active: 13 µM | 
7 | Cc1ccc(/C=C2/Sc3ccc(C(=O)N4CCC5(CC4)OCCO5)cc3NC2=O)cc1 | inconclusive: 23.1 µM [falling, partial curve, poor fit] | 
8 | Clc1ccc(C(Cn2ccnc2)OCc2csc3c(Cl)cccc23)c(Cl)c1 (centres undefined) | inconclusive: 29.1 µM [falling, single point] | 
9 | Fc1ccc(CNCCc2ccc3c(c2)OCO3)cc1 | inconclusive: 6.51 µM [falling, single point] | 
10 | O=C(Nc1ccccc1)C1=C[C@H](c2ccccc2)C[C@H](OCCCCO)O1 | inconclusive: 29.1 µM [activator, single point] | 
11 | CC(NCC#Cc1ccccc1)C(O)c1ccccc1 (centres undefined) | inconclusive: 25.9 µM [activator, single point] | 
12 | COC(=O)C1=C(c2ccc(Cl)c(C(F)(F)F)c2)C[C@@H]2CC[C@H]1N2C(=O)N1CCCC1 | inconclusive: 8.2 µM [falling, partial curve, poor fit] | 
13 | Cc1cccc(-n2c(=S)[nH]c3ccccc3c2=O)n1 | inconclusive: 0.116 µM [falling, full curve, poor fit] | 
14 | CSCc1nnc2n1-c1ccc(Cl)cc1C(c1ccccc1)=NC2 |  | inactive: -12.1%
15 | COc1ccc(OC)c(-n2c(O)c(/C=C3\C=Nc4ccccc43)c(=O)[nH]c2=O)c1 | inconclusive: 29.1 µM [activator, single point] | 
16 | Cc1[nH]nc2ccc(-c3cncc(OC[C@@H](N)Cc4c[nH]c5ccccc45)c3)cc12 | active: 5.17 µM | 
17 | CC(C)c1ccccc1NC1=NCCCS1 | inconclusive: 18.4 µM [activator, single point] | 
18 | O=C(CN1CCN(S(=O)(=O)c2ccc3ccccc3c2)CC1)NC(=O)NC1CCCCC1 | inconclusive: 18.4 µM [falling, single point] | 
19 | CCCCCn1c(=O)c(C(=O)Nc2ccccc2)c(O)c2ccccc21 | inconclusive: 4.61 µM [activator, full curve] | 
20 | Cc1ccc(OCCOc2cccc(C=C3C(=O)NC(=O)NC3=O)c2)cc1 | inconclusive: 11.6 µM [activator, partial curve] | 
21 | CC(=O)OC1CC2(O)C3CCC4CC(O)CCC4(C)C3CCC2(C)C1C1=CC(=O)OC1 (centres undefined) | active: 0.0651 µM | 
22 | O=C(CC1CCCCC1)c1c(O)c2ccccc2oc1=O | inconclusive: 11.6 µM [falling, partial curve, poor fit] | 

Row | SMILES | Potency | activity change, negative = inhibition
23 | CC(=O)Nc1ccccc1C(=O)OCc1ccccc1F | inconclusive: 18.4 µM [activator, single point] | 
24 | C[C@H](CO)N1C[C@H](C)[C@@H](CN(C)Cc2ccc(-c3ccccc3)cc2)Oc2c(NC(=O)c3ccncc3)cccc2C1=O | active: 20.6 µM | 
25 | CCOP(=O)(OCC)C(Nc1cccc(C(F)(F)F)c1)c1ccc(C)cc1 (centres undefined) | inconclusive: 20.6 µM [falling, single point] | 
26 | CCOc1ccc2nc(N3CCC(C(=O)Nc4ccc(Br)cc4F)CC3)sc2c1 | inconclusive: 2.06 µM [activator, full curve] | 
27 | CC(=O)Nc1cccc2c1Cc1ccccc1-2 | inconclusive: 7.31 µM [activator, partial curve] | 
28 | CCC(=O)N1N=C(c2c(O)n(C)c(=O)n(C)c2=O)CC1c1ccccc1 (centres undefined) | inconclusive: 8.2 µM [falling, partial curve] | 
29 | CSc1ccc(C(=O)C2CCCN(Cc3cc4ccccc4[nH]3)C2)cc1 (centres undefined) | inconclusive: 29.1 µM [falling, single point] | 
30 | CC12CC[C@H]3[C@@H](CCC4(O)C[C@H](O)CCC34/C=N/NC(=O)c3ccccc3F)C1(O)CCC2C1=CC(=O)OC1 (some centres undefined) | active: 9.2 µM | 
31 | O=C(CCc1ccc(O)cc1)N1C[C@H]2C[C@@H](C1)c1cccc(=O)n1C2 |  | inactive: 1.4%
32 | Cc1c(P(=S)(c2ccccc2)c2ccccc2)[n+]2ccccc2n1CCCc1ccccc1 | inconclusive: 29.1 µM [falling, single point] | 
33 | COc1ccc(OCC(=O)N2CCN(Cc3ccc4c(c3)OCO4)CC2)cc1 | inconclusive: 20.6 µM [falling, partial curve] | 
34 | CCOC(=O)[C@]12Cc3cc(N(C)C)ccc3[C@H]1N(Cc1ccccc1)C(=O)c1ccccc12 | inconclusive: 29.1 µM [falling, single point] | 
35 | CCCCCn1c(SCCCC)nc2c1c(=O)[nH]c(=O)n2C | inconclusive: 18.4 µM [falling, single point] | 
36 | CCOc1cccc(CC(=O)NCc2ccc3c(c2)CCN3C(=O)c2cccc(C)c2)c1OCC | active: 20.6 µM | 
37 | CN1C(=O)C(=Cc2cn(CC(=O)N3CCCCC3)c3ccccc23)C(=O)N(C)C1=O | inconclusive: 29.1 µM [falling, single point] | 
38 | CCOC(=O)c1ccc(-[n+]2c(-c3ccccc3)cc(-c3ccccc3)cc2-c2ccccc2)cc1 |  | inactive: -23.6%
39 | O=C1NC(=O)N(Cc2ccco2)C(=O)/C1=C\c1cccn1CCOc1ccc(Cl)cc1 |  | inactive: -4.09%
40 | O=c1[nH]c(O)c(N=Nc2cc(C(F)(F)F)ccc2Cl)c(=O)[nH]1 | inconclusive: 1.16 µM [falling, full curve] | 
41 | Cc1nc2cc(C(F)(F)F)ccc2n1C1CCN(Cc2nnnn2CCc2ccccc2)CC1 | inconclusive: 29.1 µM [falling, single point] | 
42 | CCOc1cc2c(cc1OCC)-n1cccc1C(c1c(O)cccc1OC)NC2 (centres undefined) | inconclusive: 20.6 µM [falling, single point] | 
43 | CC12Cc3cnoc3C=C1CCC1C2CCC2(C)C1CCC2(C)O (centres undefined) | inconclusive: 18.4 µM [falling, partial curve, poor fit] | 
44 | COC(=O)C1=C(c2ccccc2)C[C@@H]2CC[C@H]1N2C(=O)NCCCOC(C)C |  | inactive: -24.6%

Row | SMILES | Potency | activity change, negative = inhibition
45 | N#Cc1ccccc1Cn1cc(C(=O)c2cccs2)c2ccccc21 | inconclusive: 25.9 µM [falling, single point] | 
46 | CCCCCCOc1ccc(CN2CCN(CC)CC2)cc1 | inconclusive: 10.3 µM [activator, partial curve, poor fit] | 
47 | O=C(COc1ccccc1)Nc1ccc(Cl)cc1C(=O)c1ccccc1 | inconclusive: 20.6 µM [falling, single point] | 
48 | Cc1nc2cc(-c3cccc(F)c3)nn2c(C)c1CCC(=O)N1CCC2(CC1)OCCO2 | inconclusive: 2.31 µM [falling, partial curve] | 
49 | CN(C)c1ccc(C(O)P(=O)(OCc2ccccc2)c2ccc(N(C)C)cc2)cc1 (centres undefined) | inconclusive: 1.64 µM [activator, partial curve, poor fit] | 
50 | Cc1[nH]c2ccc(OC(F)(F)F)cc2c1CCNCc1ccc(Cl)cc1 |  | inactive: 2.88%
51 | Nc1ccc(N2CCN(Cc3ccccc3Cl)CC2)c(Cl)c1 | inconclusive: 7.31 µM [falling, partial curve, poor fit] | 
52 | CCOC(=O)Nc1ccc(NCc2ccc(F)cc2)nc1N | inconclusive: 8.2 µM [falling, full curve, poor fit] | 
53 | COc1ccc(C(CN(C)C)C2(O)CCCCC2)cc1 (centres undefined) | inconclusive: 0.164 µM [falling, full curve, poor fit] | 
54 | COc1ccc(C(=O)Nc2ccc(Cl)cc2C(=O)c2ccccc2)c(OC)c1 | inconclusive: 20.6 µM [falling, single point] | 
55 | Cc1cccc(OCCn2cccc2/C=C2/C(=O)NC(=O)N(Cc3ccco3)C2=O)c1 | inconclusive: 29.1 µM [activator, single point] | 
56 | CC(C)C(=O)Nc1ccc([N+](=O)[O-])c(C(F)(F)F)c1 | inconclusive: 14.6 µM [falling, partial curve, poor fit] | 
57 | Cc1c(C(c2ccc(Cl)cc2Cl)c2c(O)c3ccccc3oc2=O)c(=O)n(-c2ccccc2)n1C (centres undefined) | inconclusive: 29.1 µM [activator, partial curve, poor fit] | 
58 | COc1ccc(NC(=O)CCOc2cc(C)ccc2C)cc1S(=O)(=O)N1CCCCC1 | inconclusive: 29.1 µM [falling, single point] | 
59 | Clc1ccc2sc(C3CCNCC3)nc2c1 | inconclusive: 0.651 µM [activator, full curve] | 
60 | CCN(CC)c1ccc(N=Cc2c(O)n(Cc3ccco3)c(=O)[nH]c2=O)cc1 |  | inactive: -16.8%
61 | CCCCn1c(=O)c(C(=O)Nc2cnccn2)c(O)c2ccccc21 | inconclusive: 6.51 µM [falling, single point] | 
62 | CCOC(=O)c1cnc(SCc2ccc(Cl)c(Cl)c2)nc1N1CC1 |  | inactive: -23.1%
63 | CNC(=O)Oc1cccc(-c2cn3cc(OC(=O)NC)ccc3n2)c1 | inconclusive: 7.31 µM [falling, partial curve, poor fit] | 
64 | CC[C@@H](C)[C@H](C(CC(=O)N1CCCC1[C@@H](OC)[C@H](C)C(=O)N[C@H](Cc1ccccc1)c1nccs1)OC)N(C)C(=O)[C@H](NC(=O)[C@@H](C(C)C)N(C)C)C(C)C (some centres undefined) | inconclusive: 0.0073 µM [activator, full curve, poor fit] | 

In the list so far, these have a furan ring, fused or not.
Row | SMILES | Potency | activity change, negative = inhibition
39 | O=C1NC(=O)N(Cc2ccco2)C(=O)/C1=C\c1cccn1CCOc1ccc(Cl)cc1 |  | inactive: -4.09%
55 | Cc1cccc(OCCn2cccc2/C=C2/C(=O)NC(=O)N(Cc3ccco3)C2=O)c1 | inconclusive: 29.1 µM [activator, single point] | 
60 | CCN(CC)c1ccc(N=Cc2c(O)n(Cc3ccco3)c(=O)[nH]c2=O)cc1 |  | inactive: -16.8%
